Results published in patent US20230227838A1, “ENHANCED CELL SURVIVAL AGAINST BIOTIC AND ABIOTIC STRESSES THROUGH SALICYLICK ACID-INDUCED NPR1 CONDENSATES” (priority 2020, published 2023).

B1: AT2G43410 (protein, UniProt Q8LPQ9 1-901, looked up)
Flowering time control …: MALSMKPFRADDSGFQSNNLWVGSLTPETTESDLTELFGRYGDIDRITVYSSRGFAFIYYRHVEEAVAAKEALQGANLNGSQIKIEYARPAKPCKSLWVGGIGPNVSKDDLEEEFSKFGKIEDFRFLRERKTAFIDYYEMDDALQAKSMNGKPMGGSFLRVDFLRSQAPKKEQWAGSYDNRNGNMNHKPQYPHSYEDFKGDVQPSKVLWIGFPPTATQCNDEQILHNAMILFGEIERVKSYPSRNFALVEFRSAEEARQCKEGLQGRLFNNPRIKIMYSNDELPPEQDDTSFYSGMKRSRTDMFNNDPSFVSSPHSTGIPGSMRPLRGTNERSYNGAEYNDVVGKEPNWRRPSANGTGILPSPTGPGILPSPAQGTRRPMRSNPDSWEGYDPAQLVRESKRTRRDGSVDGFTPMGVDERSFGRGSVAARPIRGPPDSDHIWRGMIAKGGTPVCCARCVPMGKGIETKLPEVVNCSARTDLNMLAKHYAVAIGCEIVFFVPDREEDFASYTEFLRYLSSKDRAGVAKLDDGTTLFLVPPSDFLTDVLQVTRQERLYGVVLKLPPPAVPVTASYRQESQSNPLHYMDQARDSPANASHSLYPPRENYIRGAPEHLTAASKPSVSEPLRIPNNAAPQAGVSLTPELLATLASILPATSQPAAPESHQPMSGPSTVVSTAHQSNGLYNGEAPSQAWKRGPQTVHDASNQSFQQYGNQYTPAGQLPPPPSRYPPASNNPNYTSGMVHGNMQYQSQSVNMPQLSPLPNMPHNNYSMYTQGSSNHPVSQPMVQQYQPEASMPNQNYGPIPSYQQANFHGVTTNQAQNLNPSQFQAAMQPPADKANLEPQNQALRLQPMISGDGQGTTDGEVDKNQRYQSTLQFAANLLLQIQQKQQQQSSGTPAGQGP
B2: AT4G09730 (protein, UniProt Q56X76 1-621, looked up)
DEAD-box ATP-dependent RNA …: MVGASRTILSLSLSSSLFTFSKIPHVFPFLRLHKPRFHHAFRPLYSAAATTSSPTTETNVTDPDQLKHTILLERLRLRHLKESAKPPQQRPSSVVGVEEESSIRKKSKKLVENFQELGLSEEVMGALQELNIEVPTEIQCIGIPAVMERKSVVLGSHTGSGKTLAYLLPIVQLMREDEANLGKKTKPRRPRTVVLCPTRELSEQVYRVAKSISHHARFRSILVSGGSRIRPQEDSLNNAIDMVVGTPGRILQHIEEGNMVYGDIAYLVLDEADTMFDRGFGPEIRKFLAPLNQRALKTNDQGFQTVLVTATMTMAVQKLVDEEFQGIEHLRTSTLHKKIANARHDFIKLSGGEDKLEALLQVLEPSLAKGSKVMVFCNTLNSSRAVDHYLSENQISTVNYHGEVPAEQRVENLKKFKDEEGDCPTLVCTDLAARGLDLDVDHVVMFDFPKNSIDYLHRTGRTARMGAKGKVTSLVSRKDQMLAARIEEAMRNNESLESLTTDNVRRDAARTHITQEKGRSVKQIREVSKQRNSRDKPSSSSPPARSTGGKTPVRKSSSSSFSKPRKASSPPEKSSKPKRKILKTVGSRSIAARGKTGSDRRPGKKLSVVGFRGKSSSARAS
B3: AT1G78380 (protein)
chain: MANEVILLDFWPSMFGMRTRIALREKGVEFEYREEDLRNKSPLLLQMNPIHKKIPVLIHNGKPVNESIIQVQYIDEVWSHKNPILPSDPYLRAQARFWADFIDKKLYDAQRKVWATKGEEQEAGKKDFIEILKTLESELGDKPYFSGDDFGYVDIALIGFYTWFPAYEKFANFSIESEVPKLIAWVKKCLQRESVAKSLPDPEKVTEFVSELRKKFVPE
B4: AT3G26830 (protein)
chain: MSVFLCFLVLLPLILIFLNVLKPSKYKLPPGPKKLPIIGNLHQRRTLHPRNRRNLAEMYGPVALLQYGFVPVVAISSKEAAEEVLKINDLECCSRPEAAGMRATFYNFKDIGMAPFGDEWSLMRKLSVVELFSVKKLQSFKYIIEEENNLCVKKLSEFATRQSPVNLERAIFTLVGNIVCRIGYGINLYECDFFEADRVVDLVLKAEAVIRETVFSDFFPGRIGRFIDCISGQNRRLKNNFSVVDTFFQNVLNEHLKPGRESSTIVDLMIDMKKKQENDGDALKFTTDHLKGMISDIFVAGIGGVAGITLWGMTELIRNPRVMKKVQDEIRTTLGDKKERIKEEDLNQLHYFKLVVKETLRLHPTTPLLLPRQTMSHIKIQGYDVPAKTQILVNVYAMGRDPKLWENADEFNPDRFLDSSVDFKGKNYEFIPFGSGRRICPGMTMGTILVEMALLNLLYFFDWGLAKQEEAKEIINGEENFLAFFQVLHH
B5: AT4G31500 (protein)
chain: MDLLLIIAGLVAAAAFFFLRSTTKKSLRLPPGPKGLPIIGNLHQMEKFNPQHFLFRLSKLYGPIFTMKIGGRRLAVISSAELAKELLKTQDLNFTARPLLKGQQTMSYQGRELGFGQYTAYYREMRKMCMVNLFSPNRVASFRPVREEECQRMMDKIYKAADQSGTVDLSELLLSFTNCVVCRQAFGKRYNEYGTEMKRFIDILYETQALLGTLFFSDLFPYFGFLDNLTGLSARLKKAFKELDTYLQELLDETLDPNRPKQETESFIDLLMQIYKDQPFSIKFTHENVKAMILDIVVPGTDTAAAVVVWAMTYLIKYPEAMKKAQDEVRSVIGDKGYVSEEDIPNLPYLKAVIKESLRLEPVIPILLHRETIADAKIGGYDIPAKTIIQVNAWAVSRDTAAWGDNPNEFIPERFMNEHKGVDFKGQDFELLPFGSGRRMCPAMHLGIAMVEIPFANLLYKFDWSLPKGIKPEDIKMDVMTGLAMHKKEHLVLAPTKHI
B6: AT4G34135 (protein, UniProt Q94C57 1-483, looked up)
UDP-glucosyl transferase 73B2: MGSDHHHRKLHVMFFPFMAYGHMIPTLDMAKLFSSRGAKSTILTTSLNSKILQKPIDTFKNLNPGLEIDIQIFNFPCVELGLPEGCENVDFFTSNNNDDKNEMIVKFFFSTRFFKDQLEKLLGTTRPDCLIADMFFPWATEAAGKFNVPRLVFHGTGYFSLCAGYCIGVHKPQKRVASSSEPFVIPELPGNIVITEEQIIDGDGESDMGKFMTEVRESEVKSSGVVLNSFYELEHDYADFYKSCVQKRAWHIGPLSVYNRGFEEKAERGKKANIDEAECLKWLDSKKPNSVIYVSFGSVAFFKNEQLFEIAAGLEASGTSFIWVVRKTKDDREEWLPEGFEERVKGKGMIIRGWAPQVLILDHQATGGFVTHCGWNSLLEGVAAGLPMVTWPVGAEQFYNEKLVTQVLRTGVSVGASKHMKVMMGDFISREKVDKAVREVLAGEAAEERRRRAKKLAAMAKAAVEEGGSSFNDLNSFMEEFSS
B7: AT4G37760 (protein, UniProt Q8VYH2 1-525, looked up)
Squalene epoxidase 3: MAPTIFVDHCILTTTFVASLFAFLLLYVLRRRSKTIHGSVNVRNGTLTVKSGTDVDIIIVGAGVAGAALAHTLGKEGRRVHVIERDLTEPDRIVGELLQPGGYLKLIELGLEDCVKDIDAQRVLGYALFKDGKHTKLSYPLDQFDSDVAGRSFHNGRFVQRMREKASLLPNVRMEQGTVTSLVEENGIIKGVQYKTKDGQELKSFAPLTIVCDGCFSNLRRSLCKPKVEVPSNFVGLVLENCELPFPNHGHVVLGDPSPILFYPISSSEVRCLVDVPGSKLPSVASGEMAHHLKTMVAPQVPPQIRDAFISAVEKGNIRTMPNRSMPADPIHTPGALLLGDAFNMRHPLTGGGMTVALSDIVILRDLLNPLVDLTNKESLSKYIESFYTLRKPVASTINTLAGALYKVFLASPDDARSEMRRACFDYLSLGGVCSSGPVALLSGLNPRPMSLVLHFFAVAIFGVGRLLVPLPSVKRLWLGARLISSASGIIFPIIKAEGVRQMFFPRTIPAIYRAPPTPSSSSPQ
B8: AT4G05420 (protein)
chain: MSSWNYVVTAHKPTSVTHSCVGNFTSPQELNLIVAKCTRIEIHLLTPQGLQPMLDVPIYGRIATLELFRPHGEAQDFLFIATERYKFCVLQWDPESSELITRAMGDVSDRIGRPTDNGQIGIIDPDCRLIGLHLYDGLFKVIPFDNKGQLKEAFNIRLEELQVLDIKFLFGCAKPTIAVLYQDNKDARHVKTYEVSLKDKDFVEGPWSQNSLDNGADLLIPVPPPLCGVLIIGEETIVYCSASAFKAIPIRPSITKAYGRVDVDGSRYLLGDHAGMIHLLVITHEKEKVTGLKIELLGETSIASTISYLDNAVVFVGSSYGDSQLVKLNLHPDAKGSYVEVLERYINLGPIVDFCVVDLERQGQGQVVTCSGAFKDGSLRVVRNGIGINEQASVELQGIKGMWSLKSSIDEAFDTFLVVSFISETRILAMNLEDELEETEIEGFLSQVQTLFCHDAVYNQLVQVTSNSVRLVSSTTRELRDEWHAPAGFTVNVATANASQVLLATGGGHLVYLEIGDGKLTEVQHALLEYEVSCLDINPIGDNPNYSQLAAVGMWTDISVRIFSLPELTLITKEQLGGEIIPRSVLLCAFEGISYLLCALGDGHLLNFQMDTTTGQLKDRKKVSLGTQPITLRTFSSKSATHVFAASDRPTVIYSSNKKLLYSNVNLKEVSHMCPFNSAAFPDSLAIAREGELTIGTIDDIQKLHIRTIPLGEHARRICHQEQTRTFGICSLGNQSNSEESEMHFVRLLDDQTFEFMSTYPLDSFEYGCSILSCSFTEDKNVYYCVGTAYVLPEENEPTKGRILVFIVEDGRLQLIAEKETKGAVYSLNAFNGKLLAAINQKIQLYKWMLRDDGTRELQSECGHHGHILALYVQTRGDFIVVGDLMKSISLLLYKHEEGAIEERARDYNANWMSAVEILDDDIYLGAENNFNLLTVKKNSEGATDEERGRLEVVGEYHLGEFVNRFRHGSLVMRLPDSEIGQIPTVIFGTVNGVIGVIASLPQEQYTFLEKLQSSLRKVIKGVGGLSHEQWRSFNNEKRTAEARNFLDGDLIESFLDLSRNKMEDISKSMNVQVEELCKRVEELTRLH

System: sim3-GFP
Test: Quantitative LC-MS/MS of sim3-GFP interactome (SINC components)
Parameters: species or system Arabidopsis thaliana
Conditions: protein enrichment in the sim3-GFP interactome (SINC components), SA-treated samples versus mock

Molecule	Normalized Fold Change: SA vs Mock
B1	4.866
B2	46.88
B3	2.584
B4	14.61
B5	2.418
B6	8.082
B7	50.12
B8	2.522
